From publication PMC7395098
These are yes or no findings as the source states them, for the method shown. A result given as binding can be weak or reduced; the word gives no strength.

Target: ZjFT (Ziziphus jujuba (Chinese jujube))
Assay: two-hybrid; tested proteins fused to Gal4 BD (pGBKT7), screening proteins fused to Gal4 AD (pGADT7), cotransformed into yeast strain AH109; spotted on SD -LW, -LWH, -LWH + 7 mM 3-AT and -LWAH; growth monitored after 3 days at 28 °C

Substance: ZjCO5 (from UniProt A0A6P4B574)
- binding: binds
